Source: patent US8252814B2, “Agents and crystals for improving excretory potency of urinary bladder” (priority 1998, dated 2012)
For at least one compound, name, drawing or mass did not settle the structure.

Chains of the proteins cited; added tags and fusions are not shown. Residues count along the entry.
UniProt P22303, 32-617 isoform P22303-2 limits assumed: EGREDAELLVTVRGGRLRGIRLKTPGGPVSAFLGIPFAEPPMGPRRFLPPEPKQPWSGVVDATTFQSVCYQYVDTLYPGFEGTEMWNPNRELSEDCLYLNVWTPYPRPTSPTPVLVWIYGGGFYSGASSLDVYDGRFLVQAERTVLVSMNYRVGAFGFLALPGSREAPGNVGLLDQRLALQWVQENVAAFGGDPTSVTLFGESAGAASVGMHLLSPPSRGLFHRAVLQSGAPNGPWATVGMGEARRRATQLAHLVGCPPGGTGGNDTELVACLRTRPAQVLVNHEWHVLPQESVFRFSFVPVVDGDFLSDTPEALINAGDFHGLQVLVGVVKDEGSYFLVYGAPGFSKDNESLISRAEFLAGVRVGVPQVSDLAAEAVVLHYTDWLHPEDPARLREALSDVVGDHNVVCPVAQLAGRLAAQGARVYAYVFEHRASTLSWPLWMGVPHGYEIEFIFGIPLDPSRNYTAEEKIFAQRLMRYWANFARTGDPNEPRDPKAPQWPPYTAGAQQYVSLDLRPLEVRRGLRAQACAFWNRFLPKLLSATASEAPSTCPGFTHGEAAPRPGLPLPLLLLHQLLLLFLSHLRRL

Biological target: T1, human erythrocyte-derived acetylcholine esterase (Homo sapiens, UniProt P22303)
T1 construct: Acetylcholinesterase of human erythrocyte origin (Sigma Chemical Co.); purchased Sigma Chemical Co; host or cells: human erythrocytes (natural source)
Assay: Determination of the activity to inhibit the acetylcholine esterase of the crystals (Ellman method), Experimental Example 5
Format: biochemical
Details: conclusion from Experimental Example 5
Experimental: The activity to inhibit the acetylcholine esterase of the crystals obtained in Example 1 was determined according to the acetylthiocholine method (the Ellman method) by the use of a human erythrocyte-derived acetylcholine esterase.
A human erythrocyte-derived acetylcholine esterase (Sigma Chemical Company) was dissolved into distilled water to obtain a standard enzyme preparation with an enzyme concentration of 0.2 IU/mL. […]
The activity to inhibit the acetylcholine esterase of the crystals obtained in Example 1 was determined according to the acetylthiocholine method (the ElIman method) by the use of a human erythrocyte-derived acetylcholine esterase.
A human erythrocyte-derived acetylcholine esterase (Sigma Chemical Company) was dissolved into distilled water to obtain a standard enzyme preparation with an enzyme concentration of 0.2 IU/mL. […] As soon as 50 μl of a 4-mM solution of acetylthiocholine iodide (Sigma Chemical Company) was added and shaking was started again, every increment in absorbance at the wavelength of 414 nm at an interval of 30 seconds was determined for 10 minutes. R=5.74×10^−7×ΔA (wherein R indicates an enzyme activity (mol) and ΔA indicates an increment in absorbance at the wavelength of 414 nm). […] Furthermore, the activity to inhibit the acetylcholine esterase of distigmine was determined in a manner similar to that described in the above method.

O=C(CCC1CCN(Cc2cccc(F)c2)CC1)c1cc2c3c(c1)CCN3C(=O)CC2 [Example 1, 8-[3-[1-[(3-fluorophenyl)-methyl]-4-piperidinyl]-1-oxopropyl]-1,2,5,6-tetrahydro-4H-pyrrolo-[3,2,1-ij]quinolin-4-one]
activity to inhibit the acetylcholine esterase (in words): excellent activity to inhibit the acetylcholine esterase
